The source of these data is PMC7545832.

The chains behind the UniProt entries cited, without tags or fusion partners.
UniProt Q13485: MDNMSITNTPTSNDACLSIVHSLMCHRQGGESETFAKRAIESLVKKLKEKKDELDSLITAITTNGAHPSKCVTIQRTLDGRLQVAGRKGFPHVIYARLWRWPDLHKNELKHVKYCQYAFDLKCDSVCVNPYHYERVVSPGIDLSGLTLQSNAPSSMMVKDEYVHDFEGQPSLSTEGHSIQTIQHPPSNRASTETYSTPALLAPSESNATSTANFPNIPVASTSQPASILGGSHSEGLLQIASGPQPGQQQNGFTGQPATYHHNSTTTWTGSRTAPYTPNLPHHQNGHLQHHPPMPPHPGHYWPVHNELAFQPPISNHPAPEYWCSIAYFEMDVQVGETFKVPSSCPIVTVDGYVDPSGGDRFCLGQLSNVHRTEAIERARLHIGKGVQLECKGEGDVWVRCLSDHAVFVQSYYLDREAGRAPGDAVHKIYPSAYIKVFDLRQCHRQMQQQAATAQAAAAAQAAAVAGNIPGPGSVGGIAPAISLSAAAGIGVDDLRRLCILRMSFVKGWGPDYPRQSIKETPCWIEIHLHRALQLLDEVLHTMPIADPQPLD

These are yes or no findings as the source states them, for the method shown. Binding seen in cells or lysates may run through a third protein. Tags and fused reporters may be left off the sequences shown.

The assay concerns the target T1, USP1-HA (UniProt O94782).
T1 sequence: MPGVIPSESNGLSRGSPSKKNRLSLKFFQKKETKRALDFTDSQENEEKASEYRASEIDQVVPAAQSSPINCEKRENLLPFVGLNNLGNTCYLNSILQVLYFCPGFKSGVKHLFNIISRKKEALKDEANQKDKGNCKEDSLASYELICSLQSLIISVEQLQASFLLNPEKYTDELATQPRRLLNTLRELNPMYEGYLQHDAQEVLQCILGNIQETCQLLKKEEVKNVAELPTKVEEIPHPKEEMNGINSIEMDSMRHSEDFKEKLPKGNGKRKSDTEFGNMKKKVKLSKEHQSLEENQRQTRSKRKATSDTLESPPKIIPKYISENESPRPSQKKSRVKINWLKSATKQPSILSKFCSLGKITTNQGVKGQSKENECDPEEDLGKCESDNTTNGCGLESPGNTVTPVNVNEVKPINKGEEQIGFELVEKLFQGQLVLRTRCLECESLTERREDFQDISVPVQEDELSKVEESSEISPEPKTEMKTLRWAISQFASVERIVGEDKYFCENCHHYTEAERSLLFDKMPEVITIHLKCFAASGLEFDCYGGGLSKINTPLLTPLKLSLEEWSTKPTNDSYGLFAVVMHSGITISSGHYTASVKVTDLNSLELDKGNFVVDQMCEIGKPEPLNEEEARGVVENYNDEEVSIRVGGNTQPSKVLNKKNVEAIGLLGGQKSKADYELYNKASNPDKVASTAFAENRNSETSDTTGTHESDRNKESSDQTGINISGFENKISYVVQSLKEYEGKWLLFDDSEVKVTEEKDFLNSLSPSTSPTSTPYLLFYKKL
The assay is described as follows: co-IP; Co-IP in 293T cells: USP1-HA with TBLR1-Flag (reciprocal, tag antibodies) or with RAC1, SMAD4, BMP4 or PPP2R1.

Take SMAD4 (from UniProt Q13485 1-552): the binding entry is reported as “no binding”.
